Article PMC5794190
These are yes or no findings as the source states them, for the method shown. Binding seen in cells or lysates may run through a third protein. Some binding calls cover weakened binding; strength is not graded here. For part of these data: Sequences can lack the tags named with a protein.

Sequences of proteins named here, by UniProt entry; tags and fusion partners are left off. Residues count along the entry.
UniProt Q14258: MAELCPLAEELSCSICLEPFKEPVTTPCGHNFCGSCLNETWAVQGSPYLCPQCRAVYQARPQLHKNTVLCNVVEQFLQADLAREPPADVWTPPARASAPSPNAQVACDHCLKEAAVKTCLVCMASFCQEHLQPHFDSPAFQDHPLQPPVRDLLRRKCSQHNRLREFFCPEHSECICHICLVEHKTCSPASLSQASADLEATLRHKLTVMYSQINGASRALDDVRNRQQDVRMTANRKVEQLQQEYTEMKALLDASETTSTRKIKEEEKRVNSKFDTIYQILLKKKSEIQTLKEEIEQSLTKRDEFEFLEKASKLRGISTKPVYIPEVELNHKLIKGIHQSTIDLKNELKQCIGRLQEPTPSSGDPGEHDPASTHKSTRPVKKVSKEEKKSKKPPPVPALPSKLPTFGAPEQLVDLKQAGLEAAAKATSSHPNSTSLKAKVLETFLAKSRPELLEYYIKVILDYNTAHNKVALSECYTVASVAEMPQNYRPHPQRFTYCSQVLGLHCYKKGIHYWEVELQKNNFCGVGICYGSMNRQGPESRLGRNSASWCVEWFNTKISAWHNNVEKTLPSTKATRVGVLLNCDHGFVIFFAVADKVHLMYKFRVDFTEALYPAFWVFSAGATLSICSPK
UniProt P03186, residues 1-235: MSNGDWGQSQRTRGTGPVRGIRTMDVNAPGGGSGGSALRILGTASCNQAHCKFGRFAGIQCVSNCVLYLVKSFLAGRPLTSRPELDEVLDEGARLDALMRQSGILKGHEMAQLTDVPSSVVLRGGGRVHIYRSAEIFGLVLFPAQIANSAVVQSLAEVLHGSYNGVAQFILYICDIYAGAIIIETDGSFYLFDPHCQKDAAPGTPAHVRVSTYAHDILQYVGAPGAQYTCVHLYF
UniProt P16785, residues 1-263: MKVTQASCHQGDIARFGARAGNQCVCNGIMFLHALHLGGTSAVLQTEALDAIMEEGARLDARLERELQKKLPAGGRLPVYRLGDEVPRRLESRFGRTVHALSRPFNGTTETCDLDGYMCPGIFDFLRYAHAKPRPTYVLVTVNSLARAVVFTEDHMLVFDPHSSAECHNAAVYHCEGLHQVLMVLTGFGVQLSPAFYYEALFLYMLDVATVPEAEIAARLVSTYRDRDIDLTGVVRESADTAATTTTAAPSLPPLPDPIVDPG
UniProt P10220, residues 1-293: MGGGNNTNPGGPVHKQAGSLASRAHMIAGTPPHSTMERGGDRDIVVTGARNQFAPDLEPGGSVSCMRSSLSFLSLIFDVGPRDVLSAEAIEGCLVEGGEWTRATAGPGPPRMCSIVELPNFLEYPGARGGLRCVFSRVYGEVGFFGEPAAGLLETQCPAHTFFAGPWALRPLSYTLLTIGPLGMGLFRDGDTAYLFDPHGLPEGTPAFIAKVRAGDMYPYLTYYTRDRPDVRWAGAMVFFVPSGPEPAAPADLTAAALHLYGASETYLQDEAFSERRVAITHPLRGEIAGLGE
UniProt P62258: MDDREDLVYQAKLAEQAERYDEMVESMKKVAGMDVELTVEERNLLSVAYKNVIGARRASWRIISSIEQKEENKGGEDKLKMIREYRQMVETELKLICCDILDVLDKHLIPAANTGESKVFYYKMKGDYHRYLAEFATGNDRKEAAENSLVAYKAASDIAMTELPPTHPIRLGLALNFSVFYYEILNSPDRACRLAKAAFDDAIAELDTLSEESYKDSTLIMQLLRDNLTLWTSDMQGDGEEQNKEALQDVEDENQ
UniProt P31946: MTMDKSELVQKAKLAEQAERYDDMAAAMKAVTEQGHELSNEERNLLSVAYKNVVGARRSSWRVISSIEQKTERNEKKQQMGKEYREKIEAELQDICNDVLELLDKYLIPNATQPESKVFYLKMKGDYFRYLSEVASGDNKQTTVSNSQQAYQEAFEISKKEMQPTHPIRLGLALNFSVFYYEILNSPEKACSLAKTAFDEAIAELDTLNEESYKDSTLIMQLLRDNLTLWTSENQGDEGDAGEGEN
UniProt P63104: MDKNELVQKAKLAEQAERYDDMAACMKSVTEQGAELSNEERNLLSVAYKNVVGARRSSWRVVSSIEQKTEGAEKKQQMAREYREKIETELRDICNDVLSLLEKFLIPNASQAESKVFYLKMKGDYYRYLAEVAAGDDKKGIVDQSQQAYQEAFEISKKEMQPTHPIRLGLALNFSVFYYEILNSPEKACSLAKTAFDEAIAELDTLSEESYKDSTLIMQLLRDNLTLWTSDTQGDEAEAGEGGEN

Tests used:
[1] = target: TRIM25 ubiquitin ligase (endogenous) (human (endogenous in HeLa, U2OS, HEK293T)) (UniProt Q14258); experiment: co-IP; endogenous TRIM25 immunoprecipitated with anti-TRIM25 antibody and protein-G Sepharose from lysates of HeLa cells transfected with FLAG-tagged plasmids, western blot; for RIG-I the cells were co-transfected with GST-2CARD
[2] = target: FLAG-BPLF1 (aa 1-235), catalytically active N-terminal domain of BPLF1 (Epstein-Barr virus) (UniProt P03186); experiment: co-IP; anti-FLAG agarose on lysates of transfected HeLa, U2OS or HEK293T cells (NP-40 lysis buffer), elution with 3xFLAG peptide, western blot; in Fig 7A with co-transfected HA-TRIM25, in Fig 5C with co-transfected HA- and FLAG-TRIM25
[3] = target: 3xFLAG-HCMV-UL48 (amino acid residues 1-263), N-terminal catalytic domain (HCMV (human cytomegalovirus)) (UniProt P16785); experiment: as above
[4] = target: T1, 3xFLAG-KSHV-ORF64 (amino acid residues 1-205), N-terminal catalytic domain (KSHV) (UniProt Q2HR64); experiment: as above
T1 sequence: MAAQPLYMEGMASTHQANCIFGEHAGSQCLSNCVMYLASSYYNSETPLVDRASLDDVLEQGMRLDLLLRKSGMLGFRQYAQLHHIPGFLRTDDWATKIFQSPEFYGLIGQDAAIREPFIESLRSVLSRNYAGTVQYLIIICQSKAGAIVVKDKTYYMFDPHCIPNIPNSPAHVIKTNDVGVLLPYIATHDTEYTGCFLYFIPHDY

[5] = target: 3xFLAG-tagged HSV-UL36 (amino acid residues 1-293), N-terminal catalytic domain (HSV (herpes simplex virus; type not stated)) (UniProt P10220); experiment: as above

Substance: FLAG-BPLF1 (aa 1-235), catalytically active N-terminal domain of BPLF1 (from UniProt P03186 1-235) (domain or fragment)
- binding [1]: binds

Substance: 14-3-3ε (from UniProt P62258 1-255)
- binding [2]: binds

Substance: TRIM25 ubiquitin ligase (endogenous) (from UniProt Q14258 1-630)
- binding [3]: binds
- binding [4]: binds
- binding [5]: binds
- binding [2]: binds

Substance: 14-3-3β (from UniProt P31946 1-246)
- binding [2]: no binding

Substance: 14-3-3ζ (from UniProt P63104 1-245)
- binding [2]: binds

Substance: HA-tagged TRIM25 (co-expressed with FLAG-tagged TRIM25 in the self-association test) (from UniProt Q14258 1-630)
- binding [3]: binds
- binding [4]: binds
- binding [5]: binds
- binding [2]: binds
